Here are results for 81 molecules from the supplement of paper PMC3682954.

The test system of this experiment is RAW 264.7. The experiment is described as follows: cell viability (MTT) relative to vehicle control; higher = more viable cells. The note with it: stimulus: HMGB1 5 ug/ml, 18 h.
The mark [1] stands for this setting: compound concentration: 1 ug/ml.

Values joined by “and” are separate entries in the source; they are usually repeats but may differ in a detail not shown here. Identical values can stand only once. Counter-ions that a name gives are not always drawn. ± gives the standard deviation of the averaged measurements. The list shows a part of the results. Repeats are few or missing, and single values can be far off.

For orientation: cell viability means a read-out of living cells in per cent, often relative to untreated cells. For the molecule `CCCSc1ccc2[nH]c(NC(=O)OC)nc2c1` [Albendazole], where the note is “compound concentration: 3 uM”, the cell viability was 86 ± 4.4%.

As for `CCCSc1ccc2[nH]c(NC(=O)OC)nc2c1`, the cell viability (compound concentration: 3 uM) came to 76.1%.

For the molecule `Cc1c(Cl)cccc1Nc1ccccc1C(=O)O`, the cell viability (compound concentration: 3 uM) is 104%.

Regarding `Cc1c(Cl)cccc1Nc1ccccc1C(=O)O` [Tolfenamic acid], for the setting “compound concentration: 3 uM”, the cell viability was determined as 95.2 ± 8.6%. In the case of `CC1=C(/C=C/C(C)=C/C=C/C(C)=C/C=C/C=C(C)/C=C/C=C(C)/C=C/C2=C(C)CCCC2(C)C)C(C)(C)CCC1` [beta-CAROTENE], the cell viability (compound concentration: 3 uM) worked out at 102%. With `CC[C@H]1OC(=O)[C@H](C)[C@@H](O[C@H]2C[C@@](C)(OC)[C@@H](O)[C@H](C)O2)[C@H](C)[C@@H](O[C@@H]2O[C@H](C)C[C@H](N(C)C)[C@H]2O)[C@](C)(O)C[C@@H](C)C(=O)[C@H](C)[C@@H](O)[C@]1(C)O` [(-)-Erythromycin hydrate], under setting [1], the cell viability worked out at 81.3%. `CC[C@H]1OC(=O)[C@H](C)[C@@H](O[C@H]2C[C@@](C)(OC)[C@@H](O)[C@H](C)O2)[C@H](C)[C@@H](O[C@@H]2O[C@H](C)C[C@H](N(C)C)[C@H]2O)[C@](C)(O)C[C@@H](C)C(=O)[C@H](C)[C@@H](O)[C@]1(C)O`: the cell viability (compound concentration: 3 uM) was 116% and 110%. Still for that read-out and setting: under `CC[C@H]1OC(=O)[C@H](C)[C@@H](O[C@H]2C[C@@](C)(OC)[C@@H](O)[C@H](C)O2)[C@H](C)[C@@H](O[C@@H]2O[C@H](C)C[C@H](N(C)C)[C@H]2O)[C@](C)(O)C[C@@H](C)C(=O)[C@H](C)[C@@H](O)[C@]1(C)O` [Erythromycin] stands 105%; under `CC(C(=O)O)c1ccc(CC2CCCC2=O)cc1` (configuration not stated) [loxoprofen], 95%. In the case of `CC(C(=O)O)c1ccc(CC2CCCC2=O)cc1` (configuration not stated), the cell viability (compound concentration: 3 uM) was 98.4%.

For `O=C(O)CCc1nc(-c2ccccc2)c(-c2ccccc2)o1`, the cell viability (compound concentration: 3 uM) was found to be 95.1 ± 11%. As for `O=C(O)CCc1nc(-c2ccccc2)c(-c2ccccc2)o1` [Oxaprozin], the cell viability (compound concentration: 3 uM) is 103 ± 5.6%.

Turning to `O=C1c2ccccc2C(=O)C1c1ccccc1` [Phenindione], the cell viability (compound concentration: 3 uM) amounted to 80.2%. Same read-out and setting: as for `O=C1c2ccccc2C(=O)C1c1ccccc1`, the figure is 106%. As to `CC(C)[C@@H](C)/C=C/[C@@H](C)[C@H]1CC[C@H]2C3=CC=C4C[C@@H](O)CC[C@]4(C)[C@H]3CC[C@]12C` [Ergosterol], the cell viability under setting [1] was found to be 109%. As to `Clc1ccc2c(c1)C(N1CCNCC1)=Nc1ccccc1O2` [Amoxapine], the cell viability (compound concentration: 3 uM) came out at 100 ± 2.8%. The same measure, in the same setting: as for `Clc1ccc2c(c1)C(N1CCNCC1)=Nc1ccccc1O2`, the figure is 95%. On the same count and under the same terms, as for `OCCN1CCN(CCCN2c3ccccc3Sc3ccc(C(F)(F)F)cc32)CC1` [Fluphenazine dihydrochloride], the figure is 103 ± 6.3%. With `OCCN1CCN(CCCN2c3ccccc3Sc3ccc(C(F)(F)F)cc32)CC1` [Fluphenazine], the cell viability (compound concentration: 3 uM) is 121%. The same measure, in the same setting: under `OCCN1CCN(CCCN2c3ccccc3Sc3ccc(C(F)(F)F)cc32)CC1` stands 97 ± 5.8%; under `CC(C)(Oc1ccc(CCNC(=O)c2ccc(Cl)cc2)cc1)C(=O)O` [Bezafibrate], 105 ± 7.5%.

Consider `CC(C)(Oc1ccc(CCNC(=O)c2ccc(Cl)cc2)cc1)C(=O)O`, for which the cell viability (compound concentration: 3 uM) is 107%. The same measure, in the same setting: as for `NCCCCC(=O)O` [5-Aminovaleric acid hydrochloride], the figure is 103%; as for `c1ccc(CC2=NCCN2)cc1`, 113%. For `c1ccc(CC2=NCCN2)cc1` [Tolazoline hydrochloride], the cell viability (compound concentration: 3 uM) was determined as 87.5%.

For `O=C1C(c2c(O)[nH]c3ccccc23)=Nc2ccccc21`, the cell viability (compound concentration: 3 uM) was 72%.

In the case of `O=C(OCCN1CCOCC1)C1(c2ccccc2)CCCCC1`, the cell viability (compound concentration: 3 uM) worked out at 102%.

As to `CC(C)C[C@H](NC(=O)[C@H](Cc1ccccc1)NC(=O)c1cnccn1)B(O)O` [Bortezomib], where the note is “compound concentration: 3 uM”, the cell viability worked out at 4.21%. Still for that read-out and setting: as for `COc1ccc(CC(C)NCC(O)c2ccc(O)c(NC=O)c2)cc1` (configuration not stated), the figure is 93.9%; as for `COc1ccc(CC(C)NCC(O)c2ccc(O)c(NC=O)c2)cc1` (configuration not stated) [Formoterol fumarate], 125%; as for `COc1ccc(CC(C)NCC(O)c2ccc(O)c(NC=O)c2)cc1` (configuration not stated) [Formoterol], 98.7%. The same measure, in the same setting: under `CCC(=O)O[C@H]1CC[C@H]2[C@@H]3CCc4cc(O)ccc4[C@H]3CC[C@]12C` stands 109%. On the same count and under the same terms, under `Oc1c(Br)cc(Br)c2cccnc12` stands 98.2%; under `Nc1nc(F)nc2c1ncn2[C@@H]1O[C@H](COP(=O)(O)O)[C@@H](O)[C@@H]1O`, 119 ± 17%; under `CCOC(=O)N1CCC(=C2c3ccc(Cl)cc3CCc3cccnc32)CC1` [Loratadine], 96.8 ± 3.2%. On to `CCOC(=O)N1CCC(=C2c3ccc(Cl)cc3CCc3cccnc32)CC1`, for which the cell viability (compound concentration: 3 uM) was 97.53 ± 0.67%.

As for `NC(=O)c1ccccc1O`, the cell viability (compound concentration: 3 uM) was 100%. The same measure, in the same setting: under `CCCCN1CCC(n2c(=O)[nH]c3ccccc32)CC1` [NS 521 oxalate] stands 106%. Same read-out and setting: under `C[C@]12CCC(=O)C=C1CC[C@@H]1[C@@H]2C(=O)C[C@@]2(C)[C@H]1CC[C@]2(O)C(=O)CO` stands 106 ± 4.8%; under `C[C@]12CCC(=O)C=C1CC[C@@H]1[C@@H]2C(=O)C[C@@]2(C)[C@H]1CC[C@]2(O)C(=O)CO` [Cortisone], 98.5 ± 1.3%. On the same count and under the same terms, under `COC(=O)[C@H](c1ccccc1Cl)N1CCc2sccc2C1` stands 97.2%; under `COC(=O)[C@H](c1ccccc1Cl)N1CCc2sccc2C1` [Clopidogrel], 102%. Turning to `COCCCC/C(=N\OCCN)c1ccc(C(F)(F)F)cc1` [Fluvoxamine], the cell viability (compound concentration: 3 uM) is 98.4%. For `COCCCC/C(=N\OCCN)c1ccc(C(F)(F)F)cc1` [Fluvoxamine maleate], the cell viability (compound concentration: 3 uM) was determined as 98.6 ± 1.6%.

In the case of `O=C1/C(=C/c2cccs2)CC/C1=C\c1cccs1`, the cell viability (compound concentration: 3 uM) was determined as 114%. On the same count and under the same terms, as for `COc1cc2nc(N3CCN(C(=O)OCc4ccccc4)[C@H](C(=O)NC(C)(C)C)C3)nc(N)c2cc1OC`, the figure is 119%. The same measure, in the same setting: under `CN(C)[C@@H]1C(O)=C(C(N)=O)C(=O)[C@@]2(O)C(O)=C3C(=O)c4c(O)cccc4[C@@](C)(O)[C@H]3C[C@@H]12` [Tetracycline] stands 94.7%. As to `CN(C)[C@@H]1C(O)=C(C(N)=O)C(=O)[C@@]2(O)C(O)=C3C(=O)c4c(O)cccc4[C@@](C)(O)[C@H]3C[C@@H]12`, under “compound concentration: 3 uM”, the cell viability was determined as 103%. Take `CN(C)[C@@H]1C(O)=C(C(N)=O)C(=O)[C@@]2(O)C(O)=C3C(=O)c4c(O)cccc4[C@@](C)(O)[C@H]3C[C@@H]12` [Tetracycline hydrochloride]: the cell viability by setting is: under setting [1], 89.9%; (compound concentration: 3 uM) 87.9%. In the case of `O=C(O)C1CCCNC1` (racemic) [(±)-Nipecotic acid], the cell viability (compound concentration: 3 uM) is 103%. Regarding `C[C@H](N[C@@H](CCc1ccccc1)C(=O)O)C(=O)N1CCC[C@H]1C(=O)O` [Enalaprilat dihydrate], the cell viability (compound concentration: 3 uM) came out at 101%. The same measure, in the same setting: under `C[C@H](N[C@@H](CCc1ccccc1)C(=O)O)C(=O)N1CCC[C@H]1C(=O)O` stands 95.3%.

`C[C@H](N[C@@H](CCc1ccccc1)C(=O)O)C(=O)N1CCC[C@H]1C(=O)O` [Enalaprilat]: the cell viability (compound concentration: 3 uM) came out at 115%.

For the molecule `CCN(CC)CCNC(=O)c1ccc(NS(C)(=O)=O)cc1` [Sematilide monohydrochloride monohydrate], where the note is “compound concentration: 3 uM”, the cell viability was determined as 101%. As to `CC[C@H](C)[C@H](NC(=O)OCC1c2ccccc2-c2ccccc21)C(=O)O` [FMOC-L-Isoleucine], the cell viability under setting [1] is 105%. With `O=C1N[C@H](C(=O)O)CS1` [4-Thiazolidinecarboxylic acid, 2-oxo-, (R)- [CAS]], where the note is “compound concentration: 3 uM”, the cell viability was found to be 93.2%. Still for that read-out and setting: as for `CC(=O)OCC(=O)[C@@]1(O)[C@@H](C)C[C@H]2[C@@H]3CCC4=CC(=O)C=C[C@]4(C)[C@@]3(F)[C@@H](O)C[C@@]21C`, the figure is 129%.

Regarding `CC[C@H](/C=C/[C@@H](C)[C@H]1CC[C@H]2[C@@H]3CC=C4C[C@@H](O)CC[C@]4(C)[C@H]3CC[C@]12C)C(C)C` [Stigmasterol], under setting [1], the cell viability was determined as 103%. As to `O=C(O)c1cn(-c2ccc(F)cc2)c2cc(N3CCNCC3)c(F)cc2c1=O` [Sarafloxacin], the cell viability (compound concentration: 3 uM) came to 98.6 ± 6.9%. On the same count and under the same terms, as for `O=C(O)c1cn(-c2ccc(F)cc2)c2cc(N3CCNCC3)c(F)cc2c1=O`, the figure is 106%. Still for that read-out and setting: under `O=C(O)Cc1ccc(-c2ccccc2)cc1` [Felbinac] stands 101%. As for `C[C@@H]1C[C@H]2[C@@H]3C[C@H](F)C4=CC(=O)C=C[C@]4(C)[C@@]3(F)[C@@H](O)C[C@]2(C)[C@@]1(O)C(=O)CO`, where the note is “compound concentration: 3 uM”, the cell viability came out at 109%. As to `C[C@@H]1C[C@H]2[C@@H]3C[C@H](F)C4=CC(=O)C=C[C@]4(C)[C@@]3(F)[C@@H](O)C[C@]2(C)[C@@]1(O)C(=O)CO` [Flumethasone], where the note is “compound concentration: 3 uM”, the cell viability was determined as 133%. On the same count and under the same terms, as for `N#Cc1ccc(C(c2ccc(C#N)cc2)n2cncn2)cc1` [Letrozole], the figure is 101 ± 7.1%; as for `N#Cc1ccc(C(c2ccc(C#N)cc2)n2cncn2)cc1`, 96.1%. Same read-out and setting: as for `Clc1ccc(CCC(Cn2ccnc2)Sc2c(Cl)cccc2Cl)cc1` (configuration not stated) [Butoconazole nitrate], the figure is 141%; as for `C[N+]1(C)CCC(OC(=O)C(O)(c2ccccc2)C2CCCC2)C1` (configuration not stated), 98.2 ± 5.7%; as for `C[N+]1(C)CCC(OC(=O)C(O)(c2ccccc2)C2CCCC2)C1` (configuration not stated) [Glycopyrrolate], 130%. Turning to `Oc1ccc2ccccc2c1` [beta-NAPHTHOL], the cell viability (compound concentration: 3 uM) was 115%.

Regarding `CN1CCN(C2=Nc3ccccc3Oc3ccc(Cl)cc32)CC1` [Loxapine succinate], where the note is “compound concentration: 3 uM”, the cell viability worked out at 96.1 ± 1.7%. Same read-out and setting: as for `CN1CCN(C2=Nc3ccccc3Oc3ccc(Cl)cc32)CC1`, the figure is 95.82 ± 0.62%. Same read-out and setting: as for `NCc1ccccc1CC(=O)N[C@@H]1C(=O)N2C(C(=O)O)=C(CSc3nnnn3CC(=O)O)CS[C@H]12` [Ceforanide], the figure is 117%; as for `N=C(NCCCCCCNC(=N)NC(=N)Nc1ccc(Cl)cc1)NC(=N)Nc1ccc(Cl)cc1`, 71.3 ± 5.1%. The same measure, in the same setting: under `N=C(NCCCCCCNC(=N)NC(=N)Nc1ccc(Cl)cc1)NC(=N)Nc1ccc(Cl)cc1` [Chlorhexidine] stands 77.1%. On to `COc1c2occc2cc2ccc(=O)oc12` [8-Methoxypsoralen], for which the cell viability under setting [1] is 95.4%.

Take `COc1c2occc2cc2ccc(=O)oc12`: the cell viability (compound concentration: 3 uM) stood at 112%. Same read-out and setting: under `CC1(C)OC(=O)C(OCC2CC2)=C1c1ccc(S(C)(=O)=O)cc1` stands 116%; under `CC(N/C(=N\C#N)Nc1ccncc1)C(C)(C)C` (configuration not stated) [Pinacidil monohydrate], 102%; under `CC(N/C(=N\C#N)Nc1ccncc1)C(C)(C)C` (configuration not stated), 109%. Same read-out and setting: under `CC(N/C(=N\C#N)Nc1ccncc1)C(C)(C)C` (configuration not stated) [Pinacidil] stands 99.5 ± 7.1%. Regarding `Cc1c(-c2ccccc2)oc2cc(O)ccc2c1=O`, the cell viability under setting [1] came out at 90.7%.
